Values from PubChem BioAssay AID1259254 (NCATS, 2017).

Assay: 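Gene knock-downs that lead to re-replication, shown by excess G2 DNA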 (primary screen)
System: human HCT116 colorectal cancer cells
Reagent: single siRNA against human genes
Time to read-out: 3 days
Measured: 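Imaged Hoechst DNA stain sorts each cell into a cycle phase by DNA amount; per plate, G2 fraction set to 0% for non-targeting and 100% for GMNN siRNA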
Scale: G2 robust z-score and G2 cells, % of GMNN control: higher = more G2 cells, more excess DNA replication; raw share of cells in G2: higher = larger share of cells with G2 DNA content
Rule for the call: 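An siRNA counts as active if its G2 robust z-score lies at least 5 MADs above the screen median; here such calls match roughly 38% of GMNN control or more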
Here is a random part of about 59,000 reagents. About 1,550 of all reagents (2.6%) count as active. 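G2 share is only a proxy for re-replication; each gene was hit by three separate siRNAs, and active genes were retested.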 Raw values vary from plate to plate and are shown uncorrected. The numbers tell different reagents against one gene apart. The record does not give: the amount of reagent.

| gene symbol | reagent | G2 robust z-score | G2 cells, % of GMNN control | raw share of cells in G2 (%) | Outcome |
| --- | --- | --- | --- | --- | --- |
| IRF2BP2 (interferon regulatory factor 2 binding protein 2) | 1 | -0.849 | -3.01 | 2.95 | inactive |
| IRF2BP2 (interferon regulatory factor 2 binding protein 2) | 2 | 1.27 | 11.9 | 8.47 | inactive |
| IRF2BP2 (interferon regulatory factor 2 binding protein 2) | 3 | 1.24 | 11.7 | 8.89 | inactive |
| SMAGP (small cell adhesion glycoprotein) | 1 | 0.751 | 8.25 | 7.6 | inactive |
| SMAGP (small cell adhesion glycoprotein) | 2 | 1.06 | 10.4 | 9.45 | inactive |
| SMAGP (small cell adhesion glycoprotein) | 3 | -0.943 | -3.66 | 1.87 | inactive |
| ENTHD1 (ENTH domain containing 1) | 1 | 0.0802 | 3.53 | 5.01 | inactive |
| ENTHD1 (ENTH domain containing 1) | 2 | 1.53 | 13.7 | 7.16 | inactive |
| ENTHD1 (ENTH domain containing 1) | 3 | -1.07 | -4.53 | 1.49 | inactive |
| INTS1 (integrator complex subunit 1) | 1 | 1.32 | 12.2 | 9.01 | inactive |
| INTS1 (integrator complex subunit 1) | 2 | -0.593 | -1.2 | 3.42 | inactive |
| INTS1 (integrator complex subunit 1) | 3 | -0.271 | 1.06 | 3.67 | inactive |
| ABCA13 (ATP binding cassette subfamily A member 13) | 1 | 1.93 | 16.5 | 10.8 | inactive |
| ABCA13 (ATP binding cassette subfamily A member 13) | 2 | -0.147 | 1.94 | 5.51 | inactive |
| ABCA13 (ATP binding cassette subfamily A member 13) | 3 | 1.75 | 15.3 | 13.3 | inactive |
| MYOD1 (myogenic differentiation 1) | 1 | 0.826 | 8.78 | 8.75 | inactive |
| MYOD1 (myogenic differentiation 1) | 2 | -0.234 | 1.32 | 5.99 | inactive |
| MYOD1 (myogenic differentiation 1) | 3 | -1.19 | -5.39 | 1.42 | inactive |
| KDM5D (lysine demethylase 5D) | 1 | -0.555 | -0.935 | 3.22 | inactive |
| KDM5D (lysine demethylase 5D) | 2 | -0.18 | 1.7 | 6.75 | inactive |
| KDM5D (lysine demethylase 5D) | 3 | 0.939 | 9.57 | 7.35 | inactive |
| HAP1 (huntingtin associated protein 1) | 1 | -0.672 | -1.76 | 4.35 | inactive |
| HAP1 (huntingtin associated protein 1) | 2 | -0.292 | 0.916 | 4.26 | inactive |
| HAP1 (huntingtin associated protein 1) | 3 | 0.496 | 6.46 | 5.63 | inactive |
| AURKAIP1 (aurora kinase A interacting protein 1) | 1 | -0.0626 | 2.53 | 4.49 | inactive |
| AURKAIP1 (aurora kinase A interacting protein 1) | 2 | -1.65 | -8.66 | 2.9 | inactive |
| AURKAIP1 (aurora kinase A interacting protein 1) | 3 | 5.85 | 44.1 | 21.2 | active |
| SMAD6 (SMAD family member 6) | 1 | 0.0256 | 3.15 | 4.71 | inactive |
| SMAD6 (SMAD family member 6) | 2 | -0.103 | 2.24 | 5.9 | inactive |
| SMAD6 (SMAD family member 6) | 3 | 1 | 10 | 6.74 | inactive |

The list goes on (5 carried over from the part before).
| gene symbol | reagent | G2 robust z-score | G2 cells, % of GMNN control | raw share of cells in G2 (%) | Outcome |
| --- | --- | --- | --- | --- | --- |
| AURKAIP1 (aurora kinase A interacting protein 1) | 2 | -1.65 | -8.66 | 2.9 | inactive |
| AURKAIP1 (aurora kinase A interacting protein 1) | 3 | 5.85 | 44.1 | 21.2 | active |
| SMAD6 (SMAD family member 6) | 1 | 0.0256 | 3.15 | 4.71 | inactive |
| SMAD6 (SMAD family member 6) | 2 | -0.103 | 2.24 | 5.9 | inactive |
| SMAD6 (SMAD family member 6) | 3 | 1 | 10 | 6.74 | inactive |
| GPC2 (glypican 2) | 1 | 0.297 | 5.06 | 5.41 | inactive |
| GPC2 (glypican 2) | 2 | -0.78 | -2.52 | 2.27 | inactive |
| GPC2 (glypican 2) | 3 | -0.819 | -2.79 | 2.3 | inactive |
| PDZD7 (PDZ domain containing 7) | 1 | 0.0584 | 3.38 | 5.85 | inactive |
| PDZD7 (PDZ domain containing 7) | 2 | -0.135 | 2.02 | 5.19 | inactive |
| PDZD7 (PDZ domain containing 7) | 3 | 1.26 | 11.8 | 5.61 | inactive |
| ANKRD44 (ankyrin repeat domain 44) | 1 | 0.106 | 3.72 | 5.66 | inactive |
| ANKRD44 (ankyrin repeat domain 44) | 2 | 3.06 | 24.5 | 10.7 | inactive |
| ANKRD44 (ankyrin repeat domain 44) | 3 | 0.377 | 5.62 | 4.71 | inactive |
| PAPPA (pappalysin 1) | 1 | 4.72 | 36.2 | 18.2 | inactive |
| PAPPA (pappalysin 1) | 2 | -0.0054 | 2.93 | 5.94 | inactive |
| PAPPA (pappalysin 1) | 3 | 2.3 | 19.2 | 11.1 | inactive |
| MAGEB3 (MAGE family member B3) | 1 | 4.19 | 32.4 | 18.8 | inactive |
| MAGEB3 (MAGE family member B3) | 2 | -0.731 | -2.17 | 3.36 | inactive |
| MAGEB3 (MAGE family member B3) | 3 | 1.12 | 10.8 | 7.26 | inactive |
| FLRT1 (fibronectin leucine rich transmembrane protein 1) | 1 | 0.182 | 4.25 | 5.38 | inactive |
| FLRT1 (fibronectin leucine rich transmembrane protein 1) | 2 | -0.273 | 1.05 | 4.54 | inactive |
| FLRT1 (fibronectin leucine rich transmembrane protein 1) | 3 | 0.533 | 6.72 | 9.21 | inactive |
| PRDM15 (PR/SET domain 15) | 1 | 3.75 | 29.3 | 13.1 | inactive |
| PRDM15 (PR/SET domain 15) | 2 | 1.03 | 10.2 | 10.5 | inactive |
| PRDM15 (PR/SET domain 15) | 3 | -0.0755 | 2.44 | 4.4 | inactive |
| ZNF536 (zinc finger protein 536) | 1 | 0.0797 | 3.53 | 6.18 | inactive |
| ZNF536 (zinc finger protein 536) | 2 | -1.5 | -7.59 | 2.33 | inactive |
| ZNF536 (zinc finger protein 536) | 3 | -0.803 | -2.68 | 2.28 | inactive |
| TOMM20 (translocase of outer mitochondrial membrane 20) | 1 | 1.74 | 15.2 | 12.2 | inactive |
| TOMM20 (translocase of outer mitochondrial membrane 20) | 2 | 2.02 | 17.2 | 11.1 | inactive |
| TOMM20 (translocase of outer mitochondrial membrane 20) | 3 | -0.314 | 0.761 | 3.68 | inactive |
| LINC00326 (long independently transcribed non-coding RNA 326) | 1 | 0.147 | 4 | 5.1 | inactive |
| LINC00326 (long independently transcribed non-coding RNA 326) | 2 | -0.715 | -2.06 | 2.25 | inactive |
| LINC00326 (long independently transcribed non-coding RNA 326) | 3 | -0.319 | 0.724 | 3.49 | inactive |
| CLEC4G (C-type lectin domain family 4 member G) | 1 | 4.3 | 33.2 | 17.6 | inactive |
| CLEC4G (C-type lectin domain family 4 member G) | 2 | -0.983 | -3.95 | 2.63 | inactive |
| CLEC4G (C-type lectin domain family 4 member G) | 3 | -0.354 | 0.479 | 3.47 | inactive |
| FAAH (fatty acid amide hydrolase) | 1 | 0.653 | 7.57 | 7.98 | inactive |
| FAAH (fatty acid amide hydrolase) | 2 | -1.26 | -5.93 | 3.01 | inactive |
| FAAH (fatty acid amide hydrolase) | 3 | 2.61 | 21.4 | 11.3 | inactive |
| MTHFR (methylenetetrahydrofolate reductase) | 1 | -0.445 | -0.16 | 5.3 | inactive |
| MTHFR (methylenetetrahydrofolate reductase) | 2 | 0.249 | 4.72 | 4.75 | inactive |
| MTHFR (methylenetetrahydrofolate reductase) | 3 | -0.896 | -3.34 | 4.15 | inactive |
| NOL12 (nucleolar protein 12) | 1 | -0.202 | 1.55 | 5.25 | inactive |
| NOL12 (nucleolar protein 12) | 2 | 3.29 | 26.1 | 16.3 | inactive |
| NOL12 (nucleolar protein 12) | 3 | 0.912 | 9.38 | 5.17 | inactive |
| EEF1A1P48 | 1 | -1.09 | -4.71 | 1.72 | inactive |
| EEF1A1P48 | 2 | -0.272 | 1.05 | 3.42 | inactive |
| EEF1A1P48 | 3 | -0.684 | -1.84 | 3.57 | inactive |
| GOLGA8A (golgin A8 family member A) | 1 | -0.563 | -0.991 | 3.73 | inactive |
| GOLGA8A (golgin A8 family member A) | 2 | -0.98 | -3.93 | 1.7 | inactive |
| GOLGA8A (golgin A8 family member A) | 3 | 1.48 | 13.4 | 10.2 | inactive |
| MITF (melanocyte inducing transcription factor) | 1 | -1.22 | -5.64 | 3.24 | inactive |
| MITF (melanocyte inducing transcription factor) | 2 | 0.332 | 5.31 | 7.41 | inactive |
| MITF (melanocyte inducing transcription factor) | 3 | 0.998 | 9.99 | 6.49 | inactive |
| RPL31 (ribosomal protein L31) | 1 | 5.06 | 38.5 | 21.4 | active |
| RPL31 (ribosomal protein L31) | 2 | 4.53 | 34.9 | 18 | inactive |
| RPL31 (ribosomal protein L31) | 3 | 2.55 | 20.9 | 10.9 | inactive |
| OR5B21 (olfactory receptor family 5 subfamily B member 21) | 1 | 0.258 | 4.79 | 5.31 | inactive |
| OR5B21 (olfactory receptor family 5 subfamily B member 21) | 2 | 0.153 | 4.04 | 4.51 | inactive |
| OR5B21 (olfactory receptor family 5 subfamily B member 21) | 3 | 4.08 | 31.7 | 13.3 | inactive |
